# Measurements reported in the supplement of paper PMC11732987, “Enantioselective OTUD7B fragment discovery through chemoproteomics screening and high-throughput optimisation” (Communications Chemistry, 2025).
# By UniProt entry, the sequences of proteins in these tests, tags left out. Where a name states a change or a piece, a line headed by the entry shows the natural chain unless it says otherwise. Residues count along the entry.
# UniProt Q3T8J9: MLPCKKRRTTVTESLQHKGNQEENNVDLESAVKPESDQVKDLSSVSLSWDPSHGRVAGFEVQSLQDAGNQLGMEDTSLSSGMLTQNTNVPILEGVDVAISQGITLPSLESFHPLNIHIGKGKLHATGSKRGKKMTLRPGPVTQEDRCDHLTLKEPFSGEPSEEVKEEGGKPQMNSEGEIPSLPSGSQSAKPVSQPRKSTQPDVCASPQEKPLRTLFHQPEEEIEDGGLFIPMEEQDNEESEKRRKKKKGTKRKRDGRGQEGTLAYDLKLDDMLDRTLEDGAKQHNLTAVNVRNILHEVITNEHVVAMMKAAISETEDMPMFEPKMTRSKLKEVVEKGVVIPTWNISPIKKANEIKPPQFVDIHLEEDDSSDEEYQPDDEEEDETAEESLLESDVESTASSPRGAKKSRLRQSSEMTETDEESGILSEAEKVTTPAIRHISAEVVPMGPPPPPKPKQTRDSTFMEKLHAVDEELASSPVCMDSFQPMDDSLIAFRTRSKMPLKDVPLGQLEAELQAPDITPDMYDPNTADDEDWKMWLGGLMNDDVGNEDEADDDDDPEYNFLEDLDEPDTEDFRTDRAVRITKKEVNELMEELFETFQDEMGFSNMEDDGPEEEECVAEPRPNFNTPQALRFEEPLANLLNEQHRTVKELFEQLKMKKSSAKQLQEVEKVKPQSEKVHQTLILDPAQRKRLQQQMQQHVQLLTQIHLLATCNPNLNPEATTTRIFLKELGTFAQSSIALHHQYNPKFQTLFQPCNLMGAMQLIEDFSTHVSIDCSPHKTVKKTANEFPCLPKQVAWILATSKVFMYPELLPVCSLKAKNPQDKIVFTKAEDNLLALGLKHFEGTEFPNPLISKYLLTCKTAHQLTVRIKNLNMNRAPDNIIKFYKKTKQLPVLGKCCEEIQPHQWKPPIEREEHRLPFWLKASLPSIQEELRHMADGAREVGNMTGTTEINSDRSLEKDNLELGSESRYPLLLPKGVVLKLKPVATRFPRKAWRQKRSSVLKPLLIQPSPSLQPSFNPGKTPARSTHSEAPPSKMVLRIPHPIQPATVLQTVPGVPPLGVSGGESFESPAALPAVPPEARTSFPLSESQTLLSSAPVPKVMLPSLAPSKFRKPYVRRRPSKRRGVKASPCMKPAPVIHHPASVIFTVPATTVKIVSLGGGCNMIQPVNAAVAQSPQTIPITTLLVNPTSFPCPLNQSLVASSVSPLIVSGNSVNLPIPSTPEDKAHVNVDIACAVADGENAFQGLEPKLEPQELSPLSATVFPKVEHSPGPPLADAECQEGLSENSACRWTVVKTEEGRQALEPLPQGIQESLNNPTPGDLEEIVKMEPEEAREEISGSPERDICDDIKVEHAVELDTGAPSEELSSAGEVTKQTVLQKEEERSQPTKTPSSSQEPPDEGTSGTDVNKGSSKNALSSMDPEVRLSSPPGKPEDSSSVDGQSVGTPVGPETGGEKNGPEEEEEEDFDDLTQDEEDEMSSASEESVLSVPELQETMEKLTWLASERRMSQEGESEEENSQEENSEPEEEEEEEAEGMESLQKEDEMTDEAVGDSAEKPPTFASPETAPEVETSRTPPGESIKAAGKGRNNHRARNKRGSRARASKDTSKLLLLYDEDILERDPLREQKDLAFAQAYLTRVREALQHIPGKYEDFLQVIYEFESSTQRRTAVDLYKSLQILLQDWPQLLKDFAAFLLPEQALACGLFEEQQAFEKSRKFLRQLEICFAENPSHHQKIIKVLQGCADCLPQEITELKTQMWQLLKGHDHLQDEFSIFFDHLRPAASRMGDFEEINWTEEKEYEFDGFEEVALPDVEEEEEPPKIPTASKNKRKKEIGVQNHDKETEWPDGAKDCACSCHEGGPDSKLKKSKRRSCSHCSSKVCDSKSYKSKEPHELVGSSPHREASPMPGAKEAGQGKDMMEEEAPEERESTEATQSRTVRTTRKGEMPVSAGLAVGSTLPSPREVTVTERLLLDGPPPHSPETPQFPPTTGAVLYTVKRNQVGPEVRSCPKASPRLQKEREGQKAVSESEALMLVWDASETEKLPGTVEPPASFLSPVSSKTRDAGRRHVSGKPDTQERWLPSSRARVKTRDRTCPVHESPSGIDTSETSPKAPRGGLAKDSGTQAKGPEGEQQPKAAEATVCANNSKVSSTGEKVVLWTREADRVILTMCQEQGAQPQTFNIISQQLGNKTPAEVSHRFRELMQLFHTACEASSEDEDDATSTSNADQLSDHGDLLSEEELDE
# UniProt Q5T7V8, 109-132: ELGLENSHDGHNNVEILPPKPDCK
# UniProt Q9BQ67, whole entry, looked up: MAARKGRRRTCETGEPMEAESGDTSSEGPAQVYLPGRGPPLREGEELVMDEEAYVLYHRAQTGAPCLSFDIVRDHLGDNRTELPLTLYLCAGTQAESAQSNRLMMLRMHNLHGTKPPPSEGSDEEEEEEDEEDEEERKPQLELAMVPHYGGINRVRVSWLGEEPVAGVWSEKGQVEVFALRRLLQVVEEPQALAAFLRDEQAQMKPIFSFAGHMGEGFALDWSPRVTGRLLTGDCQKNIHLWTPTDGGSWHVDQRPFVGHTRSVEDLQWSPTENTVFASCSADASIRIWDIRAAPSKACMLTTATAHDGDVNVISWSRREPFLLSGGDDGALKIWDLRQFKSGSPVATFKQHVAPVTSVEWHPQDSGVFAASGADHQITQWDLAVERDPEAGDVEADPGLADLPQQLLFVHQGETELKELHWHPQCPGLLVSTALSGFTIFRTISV
# UniProt Q7Z2K8: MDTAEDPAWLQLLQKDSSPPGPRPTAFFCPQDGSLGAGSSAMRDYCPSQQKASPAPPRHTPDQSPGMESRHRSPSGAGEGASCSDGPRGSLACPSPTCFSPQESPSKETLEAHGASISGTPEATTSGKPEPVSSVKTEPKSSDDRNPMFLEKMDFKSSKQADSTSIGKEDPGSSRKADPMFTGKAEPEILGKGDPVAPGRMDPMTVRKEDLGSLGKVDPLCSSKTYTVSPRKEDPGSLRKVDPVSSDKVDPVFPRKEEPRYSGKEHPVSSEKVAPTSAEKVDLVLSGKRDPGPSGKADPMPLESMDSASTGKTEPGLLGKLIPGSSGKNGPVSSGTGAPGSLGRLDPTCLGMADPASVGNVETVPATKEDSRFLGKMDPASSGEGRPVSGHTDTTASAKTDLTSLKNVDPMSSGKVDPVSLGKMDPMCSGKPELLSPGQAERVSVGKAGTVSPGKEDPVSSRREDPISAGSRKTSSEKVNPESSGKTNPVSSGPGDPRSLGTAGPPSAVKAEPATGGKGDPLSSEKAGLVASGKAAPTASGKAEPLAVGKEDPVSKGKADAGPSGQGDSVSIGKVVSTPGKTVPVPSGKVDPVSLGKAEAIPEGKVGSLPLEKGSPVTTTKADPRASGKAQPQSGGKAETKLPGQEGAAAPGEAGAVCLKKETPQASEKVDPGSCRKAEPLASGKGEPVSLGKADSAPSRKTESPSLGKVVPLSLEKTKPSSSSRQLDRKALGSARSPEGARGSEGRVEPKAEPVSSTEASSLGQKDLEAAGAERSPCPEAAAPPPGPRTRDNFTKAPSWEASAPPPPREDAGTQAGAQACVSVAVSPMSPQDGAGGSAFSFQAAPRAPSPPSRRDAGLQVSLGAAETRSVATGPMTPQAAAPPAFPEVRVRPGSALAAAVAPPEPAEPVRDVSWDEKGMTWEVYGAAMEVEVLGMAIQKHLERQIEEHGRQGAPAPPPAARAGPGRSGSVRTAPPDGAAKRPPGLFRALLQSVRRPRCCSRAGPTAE
# UniProt O75487: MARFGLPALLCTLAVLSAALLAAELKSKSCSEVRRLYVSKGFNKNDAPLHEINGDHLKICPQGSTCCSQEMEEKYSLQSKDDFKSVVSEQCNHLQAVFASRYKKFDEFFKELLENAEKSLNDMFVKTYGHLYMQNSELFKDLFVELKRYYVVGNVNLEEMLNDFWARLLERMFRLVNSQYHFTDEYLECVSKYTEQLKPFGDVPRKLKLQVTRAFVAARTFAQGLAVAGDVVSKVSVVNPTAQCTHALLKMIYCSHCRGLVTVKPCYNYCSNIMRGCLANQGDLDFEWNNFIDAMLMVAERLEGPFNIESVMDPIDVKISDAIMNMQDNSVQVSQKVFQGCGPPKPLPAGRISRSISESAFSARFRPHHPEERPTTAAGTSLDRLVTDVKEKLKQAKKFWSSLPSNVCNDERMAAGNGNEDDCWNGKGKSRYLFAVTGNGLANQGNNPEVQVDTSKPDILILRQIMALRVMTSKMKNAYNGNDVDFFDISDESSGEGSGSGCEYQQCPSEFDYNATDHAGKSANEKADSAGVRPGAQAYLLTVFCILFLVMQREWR
# UniProt P43250, 456-475: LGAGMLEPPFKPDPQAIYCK
# UniProt Q9Y5P6: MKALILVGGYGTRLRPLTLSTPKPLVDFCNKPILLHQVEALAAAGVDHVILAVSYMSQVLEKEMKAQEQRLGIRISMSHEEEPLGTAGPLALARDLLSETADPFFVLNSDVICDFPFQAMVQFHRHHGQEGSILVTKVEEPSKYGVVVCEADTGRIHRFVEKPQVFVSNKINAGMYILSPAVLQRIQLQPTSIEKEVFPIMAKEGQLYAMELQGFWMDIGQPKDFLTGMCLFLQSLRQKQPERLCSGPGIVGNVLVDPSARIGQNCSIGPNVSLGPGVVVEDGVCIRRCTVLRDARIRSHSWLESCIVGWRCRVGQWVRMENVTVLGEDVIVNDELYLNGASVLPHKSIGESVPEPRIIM
# UniProt P62879: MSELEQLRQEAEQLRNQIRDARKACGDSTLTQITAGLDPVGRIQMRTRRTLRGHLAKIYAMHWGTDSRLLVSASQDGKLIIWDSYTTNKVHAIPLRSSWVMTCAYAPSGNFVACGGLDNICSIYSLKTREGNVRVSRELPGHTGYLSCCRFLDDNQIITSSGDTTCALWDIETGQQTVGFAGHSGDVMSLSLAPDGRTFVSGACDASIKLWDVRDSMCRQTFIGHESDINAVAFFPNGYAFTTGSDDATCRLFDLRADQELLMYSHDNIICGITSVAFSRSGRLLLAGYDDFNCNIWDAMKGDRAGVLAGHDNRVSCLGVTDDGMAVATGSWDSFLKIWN
# UniProt Q9UKJ3: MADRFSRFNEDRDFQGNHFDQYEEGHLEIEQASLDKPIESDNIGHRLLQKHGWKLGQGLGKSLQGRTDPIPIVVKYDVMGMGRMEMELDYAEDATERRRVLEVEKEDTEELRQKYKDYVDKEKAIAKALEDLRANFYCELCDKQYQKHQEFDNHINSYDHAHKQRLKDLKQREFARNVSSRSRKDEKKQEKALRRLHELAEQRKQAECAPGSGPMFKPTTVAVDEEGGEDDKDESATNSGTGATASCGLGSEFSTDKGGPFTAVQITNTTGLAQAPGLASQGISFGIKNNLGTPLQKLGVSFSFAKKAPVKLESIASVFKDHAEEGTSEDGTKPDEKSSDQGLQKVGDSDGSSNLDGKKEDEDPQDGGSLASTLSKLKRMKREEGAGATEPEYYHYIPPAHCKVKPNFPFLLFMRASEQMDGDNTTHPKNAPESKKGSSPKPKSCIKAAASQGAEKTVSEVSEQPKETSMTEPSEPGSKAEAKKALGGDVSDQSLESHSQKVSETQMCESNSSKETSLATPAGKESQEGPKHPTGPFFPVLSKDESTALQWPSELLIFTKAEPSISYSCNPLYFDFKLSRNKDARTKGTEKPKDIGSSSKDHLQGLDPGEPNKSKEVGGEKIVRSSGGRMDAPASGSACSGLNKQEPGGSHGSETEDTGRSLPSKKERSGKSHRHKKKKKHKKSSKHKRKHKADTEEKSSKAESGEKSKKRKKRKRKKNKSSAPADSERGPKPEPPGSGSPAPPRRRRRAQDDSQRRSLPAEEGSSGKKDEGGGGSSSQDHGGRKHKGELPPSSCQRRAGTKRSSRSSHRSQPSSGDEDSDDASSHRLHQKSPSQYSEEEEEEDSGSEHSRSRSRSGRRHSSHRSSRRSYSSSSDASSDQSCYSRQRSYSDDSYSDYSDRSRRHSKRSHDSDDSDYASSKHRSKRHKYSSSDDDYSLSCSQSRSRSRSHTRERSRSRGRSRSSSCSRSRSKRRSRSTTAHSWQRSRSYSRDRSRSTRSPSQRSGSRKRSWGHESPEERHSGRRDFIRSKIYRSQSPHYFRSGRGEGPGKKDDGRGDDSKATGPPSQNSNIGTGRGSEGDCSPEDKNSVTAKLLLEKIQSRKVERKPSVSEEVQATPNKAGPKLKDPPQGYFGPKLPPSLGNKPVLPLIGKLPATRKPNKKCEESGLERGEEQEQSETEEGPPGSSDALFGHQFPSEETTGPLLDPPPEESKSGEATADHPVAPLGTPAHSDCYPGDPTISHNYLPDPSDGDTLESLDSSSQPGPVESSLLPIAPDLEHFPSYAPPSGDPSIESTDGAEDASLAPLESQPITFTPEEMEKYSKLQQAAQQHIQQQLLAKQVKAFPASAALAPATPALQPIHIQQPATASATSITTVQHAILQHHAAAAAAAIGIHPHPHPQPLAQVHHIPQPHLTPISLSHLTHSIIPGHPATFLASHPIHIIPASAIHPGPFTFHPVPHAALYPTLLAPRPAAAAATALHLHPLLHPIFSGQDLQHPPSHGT
# The list shows a part of the results. The data scatter; read single values as rough.
# Compound: ClCC(=O)N[C@H]1CCCc2ccccc12
# Assay: log2 mean competition ratio of IA-DTB cysteine labelling (DMSO/compound) (log2 ratio); higher = stronger cysteine engagement by compound
# Conditions: 50 µM; treatment time: 4 h; cell line lysate: HEK293T
# Description: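 IA-DTB competitive cysteine chemoproteomics in HEK293T RIPA lysate. Lysates were treated with compound 29 or 30 at 50 or 200 µM for 4 h, then IA-DTB (500 µM, 1 h), trypsin-digested, NeutrAvidin-enriched and analysed by diaPASEF. Competition ratio = intensity DMSO / intensity compound (n=4 treated, n=64 DMSO); binding: mean log2 CR ≥ 1 and p ≤ 0.05 plus QC filters. Target is the cysteine site.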
row,Target,log2 mean competition ratio
1,GON4L C2140 (UniProt Q3T8J9),-0.208
2,GPC1 C246 (UniProt P35052),-0.262
3,GRHPR C288 (UniProt Q9UBQ7),-0.000863
4,GNE C183 (UniProt Q9Y223),-0.0703
5,GIT2 C149 (UniProt Q14161),0.175
6,GOLGA3 C45 (UniProt Q08378),0.272
7,GLG1 C269 (UniProt Q92896),-0.337
8,GBF1 C1110 (UniProt Q92538),0.101
9,GORAB C131 (UniProt Q5T7V8),0.0196
10,GRWD1 C235 (UniProt Q9BQ67),0.0425
11,GPRIN1 C46 (UniProt Q7Z2K8),0.313
12,GPC4 C341 (UniProt O75487),-0.00557
13,GRK6 C474 (UniProt P43250),-0.406
14,GMPPB C245 (UniProt Q9Y5P6),0.0158
15,GNB2 C204 (UniProt P62879),-0.00234
16,GON4L C1723 (UniProt Q3T8J9),-0.103
17,GRIPAP1 C827 (UniProt Q4V328),0.268
18,GCC2 C48 (UniProt Q8IWJ2),-0.584
19,GPATCH8 C1161 (UniProt Q9UKJ3),-0.358
20,GPRIN1 C675 (UniProt Q7Z2K8),0.0929

# Same assay, conditions: 200 µM; treatment time: 4 h; cell line lysate: HEK293T
row,Target,log2 mean competition ratio
1,GON4L C2140 (UniProt Q3T8J9),-0.144
2,GPC1 C246 (UniProt P35052),0.356
3,GRHPR C288 (UniProt Q9UBQ7),-0.0916
4,GNE C183 (UniProt Q9Y223),0.128
5,GIT2 C149 (UniProt Q14161),0.108
6,GOLGA3 C45 (UniProt Q08378),0.0845
7,GLG1 C269 (UniProt Q92896),0.0983
8,GBF1 C1110 (UniProt Q92538),0.252
9,GORAB C131 (UniProt Q5T7V8),-0.0238
10,GRWD1 C235 (UniProt Q9BQ67),0.29
11,GPRIN1 C46 (UniProt Q7Z2K8),0.33
12,GPC4 C341 (UniProt O75487),0.171
13,GRK6 C474 (UniProt P43250),0.0357
14,GMPPB C245 (UniProt Q9Y5P6),0.352
15,GNB2 C204 (UniProt P62879),-0.125
16,GON4L C1723 (UniProt Q3T8J9),0.384
17,GRIPAP1 C827 (UniProt Q4V328),0.109
18,GCC2 C48 (UniProt Q8IWJ2),0.0977
19,GPATCH8 C1161 (UniProt Q9UKJ3),0.23
20,GPRIN1 C675 (UniProt Q7Z2K8),0.432
